No constants are given. Whether binding was seen depends on the method and setting. In cells and extracts the contact can be indirect. Some results given as binding are weak or reduced against the parent protein; the word gives no strength.
Biological target: T1, Carbohydrate-responsive element-binding protein, β isoform (CHREBPβ) (mouse (endogenous in eWAT and ADSC)) (UniProt Q99MZ3)
T1 sequence: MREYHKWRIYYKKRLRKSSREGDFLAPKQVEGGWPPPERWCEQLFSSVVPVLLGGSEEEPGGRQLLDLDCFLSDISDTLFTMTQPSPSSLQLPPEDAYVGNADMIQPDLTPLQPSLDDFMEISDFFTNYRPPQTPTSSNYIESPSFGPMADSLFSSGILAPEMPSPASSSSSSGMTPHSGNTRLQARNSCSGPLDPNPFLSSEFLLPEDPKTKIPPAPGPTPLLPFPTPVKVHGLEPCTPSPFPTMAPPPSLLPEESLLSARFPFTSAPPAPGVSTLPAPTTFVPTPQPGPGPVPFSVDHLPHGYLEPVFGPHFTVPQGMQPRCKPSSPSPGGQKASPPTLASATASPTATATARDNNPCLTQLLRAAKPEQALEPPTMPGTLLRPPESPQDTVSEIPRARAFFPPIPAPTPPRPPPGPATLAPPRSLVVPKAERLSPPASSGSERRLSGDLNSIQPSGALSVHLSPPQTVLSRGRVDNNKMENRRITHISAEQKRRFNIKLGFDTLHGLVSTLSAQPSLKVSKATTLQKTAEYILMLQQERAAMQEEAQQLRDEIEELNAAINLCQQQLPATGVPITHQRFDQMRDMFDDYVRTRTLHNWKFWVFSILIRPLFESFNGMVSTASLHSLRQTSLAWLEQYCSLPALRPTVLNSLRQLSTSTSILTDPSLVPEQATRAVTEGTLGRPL
Experiment: co-IP; IP-Western from eWAT extracts of WT, K43M and KR (K43M;Runx1-/-) mice; AMPKα, CDK6, CHREBP or p-AMPKα immunoprecipitated and blotted with the indicated antibodies; input 50 μg extract

Chains of the proteins cited; added tags and fusions are not shown.
UniProt Q64261: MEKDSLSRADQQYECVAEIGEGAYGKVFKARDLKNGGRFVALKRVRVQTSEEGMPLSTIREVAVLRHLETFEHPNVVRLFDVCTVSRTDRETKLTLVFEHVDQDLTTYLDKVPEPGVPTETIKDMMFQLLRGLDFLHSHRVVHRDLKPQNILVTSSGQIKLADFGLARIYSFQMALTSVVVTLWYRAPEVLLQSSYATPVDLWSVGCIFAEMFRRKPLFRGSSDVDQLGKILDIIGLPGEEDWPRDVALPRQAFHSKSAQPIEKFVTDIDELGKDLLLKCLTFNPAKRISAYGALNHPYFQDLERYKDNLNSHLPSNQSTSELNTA

- binding: binds
Substance: Cyclin-dependent kinase 6 (CDK6), wild type (from UniProt Q64261 1-326) (enzyme)

— publication PMC10844593
